Assay results reported in paper PMC11488288.
Results are given in words; binding and its absence hold for the method and conditions named. Binding seen in cells or lysates may run through a third protein. Some binding calls cover weakened binding; strength is not graded here.

Target: T1, OGT (UniProt Q8CGY8)
T1 sequence: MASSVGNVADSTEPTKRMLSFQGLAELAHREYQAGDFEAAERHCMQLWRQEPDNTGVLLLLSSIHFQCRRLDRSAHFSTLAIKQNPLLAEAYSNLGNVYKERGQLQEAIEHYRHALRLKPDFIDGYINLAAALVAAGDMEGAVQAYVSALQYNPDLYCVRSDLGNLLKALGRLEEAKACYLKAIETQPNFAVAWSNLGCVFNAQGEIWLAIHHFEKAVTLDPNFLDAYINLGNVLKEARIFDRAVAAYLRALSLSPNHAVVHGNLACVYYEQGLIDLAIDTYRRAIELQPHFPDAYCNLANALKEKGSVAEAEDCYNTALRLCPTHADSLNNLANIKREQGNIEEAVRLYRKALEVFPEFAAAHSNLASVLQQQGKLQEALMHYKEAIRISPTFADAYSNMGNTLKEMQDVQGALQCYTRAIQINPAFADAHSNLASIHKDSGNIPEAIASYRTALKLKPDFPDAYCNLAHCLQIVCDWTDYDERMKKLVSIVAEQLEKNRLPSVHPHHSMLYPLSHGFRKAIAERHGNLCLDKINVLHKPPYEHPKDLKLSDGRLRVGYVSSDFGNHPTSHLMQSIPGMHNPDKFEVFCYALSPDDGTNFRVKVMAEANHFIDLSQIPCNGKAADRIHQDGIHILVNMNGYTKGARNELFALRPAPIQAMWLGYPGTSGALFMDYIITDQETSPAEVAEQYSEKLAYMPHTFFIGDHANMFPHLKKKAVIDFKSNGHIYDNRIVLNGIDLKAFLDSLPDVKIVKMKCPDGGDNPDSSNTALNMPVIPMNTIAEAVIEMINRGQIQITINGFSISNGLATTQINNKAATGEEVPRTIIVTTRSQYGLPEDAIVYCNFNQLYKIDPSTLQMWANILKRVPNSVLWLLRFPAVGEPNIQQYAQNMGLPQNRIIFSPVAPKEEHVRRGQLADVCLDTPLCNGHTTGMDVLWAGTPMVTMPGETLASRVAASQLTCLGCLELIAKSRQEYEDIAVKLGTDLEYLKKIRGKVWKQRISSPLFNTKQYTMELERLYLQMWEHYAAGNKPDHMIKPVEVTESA
Test: co-IP; cells co-transfected with full-length OGT and YTHDF2 labeled with HA or Flag tags; lysate incubated with anti-HA antibody overnight at 4 °C, then Protein A/G Sepharose beads for 4 h; immunoblotting

binding: binds
B1: YTHDF2 (protein, UniProt Q91YT7 1-579)
chain: MSASSLLEQRPKGQGNKVQNGSVHQKDGLNDDDFEPYLSPQARPNNAYTAMSDSYLPSYYSPSIGFSYSLGEAAWSTGGDTAMPYLTSYGQLSNGEPHFLPDAMFGQPGALGSTPFLGQHGFNFFPSGIDFSAWGNNSSQGQSTQSSGYSSNYAYAPSSLGGAMIDGQSAFANETLNKAPGMNTIDQGMAALKLGSTEVASSVPKVVGSAVGSGSITSNIVASSSLPPATIAPPKPASWADIASKPAKQQPKLKTKNGIAGSSLPPPPIKHNMDIGTWDNKGPVAKAPSQALVQNIGQPTQGSPQPVGQQANNSPPVAQASVGQQTQPLPPPPPQPAQLSVQQQAAQPTRWVAPRNRGSGFGHNGVDGNGVGQSQAGSGSTPSEPHPVLEKLRSINNYNPKDFDWNLKHGRVFIIKSYSEDDIHRSIKYNIWCSTEHGNKRLDAAYRSMNGKGPVYLLFSVNGSGHFCGVAEMKSAVDYNTCAGVWSQDKWKGRFDVRWIFVKDVPNSQLRHIRLENNENKPVTNSRDTQEVPLEKAKQVLKIIASYKHTTSIFDDFSHYEKRQEEEESVKKERQGRGK
